Laboratory results: publication PMC12007089, “Applying Isothermal Titration Calorimetry and Saturation Transfer Difference-NMR to Study the Mode of Interaction of Flavan-3-ols with α-Amylase to Understand Their Impact on Starch Hydrolysis” (Journal of Agricultural and Food Chemistry, 2025)

Columns and labels:
[1] = Heat generation from dilution and mixing (ITC, ligand into buffer); conditions: 4 mM flavan-3-ol into buffer, 298 K, n = 2
[2] = Rotamer ratios by NMR; assay type: physicochemical
[3] = design: method as in PMID 16791908; conditions: cited from earlier work
[4] = aqueous methanol (1:1), 50% methanol

Compound | heat area (heat development) [1] | max. heat rate (intensity of the peak) [1] | proportion of the minor rotamer [2, 4] [%] | proportion of the minor rotamer ([2]; phosphate buffer) | proportion of the minor extended rotamer ([3]; hydro-alcoholic media) [%] | proportion of the minor extended rotamer ([3]; water / aqueous media) [%]
Oc1cc(O)c2c(c1)O[C@H](c1ccc(O)c(O)c1)[C@@H](O)C2 [CAT, (+)-Catechin] | 8,08±0,89 µJ | 0,56±0,03 µJ/s | – | – | – | –
Oc1cc(O)c2c(c1)O[C@H](c1ccc(O)c(O)c1)[C@H](O)C2 [EC, (−)-Epicatechin] | 2,03±0,14 µJ | 0,10±0,01 µJ/s | – | – | – | –
Oc1cc(O)c2c(c1)O[C@H](c1ccc(O)c(O)c1)[C@H](O)[C@H]2c1c(O)cc(O)c2c1O[C@H](c1ccc(O)c(O)c1)[C@H](O)C2 [PC B2, procyanidin B2] | 2,19±0,53 µJ | 0,11±0,01 µJ/s | 55 | 25% | 47 | 45
Oc1cc(O)c2c(c1)O[C@H](c1ccc(O)c(O)c1)[C@H](O)[C@H]2c1c(O)cc(O)c2c1O[C@H](c1ccc(O)c(O)c1)[C@@H](O)C2 [PC B1, procyanidin B1] | 3,10±0,29 µJ | 0,19±0,01 µJ/s | 33 | only traces | 8 | 5

Read-outs that look alike come from different tables or passages of the source.
